# Drug screen on melanoma cell lines: apoptosis marker

Values as published with doi:10.1371/journal.pone.0140310, rounded.

Drug key:
SNS-032: CC(C)(C)c1cnc(CSc2cnc(NC(=O)C3CCNCC3)s2)o1 at 0.05 µM
lapatinib: CS(=O)(=O)CCNCc1ccc(-c2ccc3ncnc(Nc4ccc(OCc5cccc(F)c5)c(Cl)c4)c3c2)o1 at 4 µM
JZL184: O=C(Oc1ccc([N+](=O)[O-])cc1)N1CCC(C(O)(c2ccc3c(c2)OCO3)c2ccc3c(c2)OCO3)CC1 at 5 µM
fludarabine: Nc1nc(F)nc2c1ncn2[C@@H]1O[C@H](CO)[C@@H](O)[C@@H]1O at 1 µM
STA-4783: CN(NC(=O)CC(=O)NN(C)C(=S)c1ccccc1)C(=S)c1ccccc1 at 0.03 µM
GW0742: Cc1cc(SCc2sc(-c3ccc(C(F)(F)F)c(F)c3)nc2C)ccc1OCC(=O)O at 10 µM
SNS-314: O=C(Nc1cccc(Cl)c1)Nc1ncc(CCNc2ncnc3ccsc23)s1 at 0.004 µM
OSU-03012: NCC(=O)Nc1ccc(-n2nc(C(F)(F)F)cc2-c2ccc3c(ccc4ccccc43)c2)cc1 at 5 µM

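Human melanoma cell lines in 1,536-well plates were treated with a pair of drugs for 72 h, then fixed, stained and imaged. Each value is the cleaved-PARP-positive fraction of nuclei relative to DMSO-treated wells, in %, so that 100 equals the control and higher values mean more apoptosis. Concentrations were fixed for each drug; these are the higher of two levels. The file gives one value for each pair and line, without errors, so small differences may be noise. Basal and induced levels differ widely between cell lines.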
This is part of the screen, not chosen by result.
A dash means that no value is listed here.

| Combination | MZ2-MEL | C32 | RPMI-7951 | LB2518-MEL | WM3619 | G-361 | WM451Lu | SK-MEL-5 | A375 | UACC-62 |
|---|---|---|---|---|---|---|---|---|---|---|
| STA-4783 + fludarabine | 146 | 5930 | 193 | 260 | 901 | 346 | 156 | 25100 | - | 291 |
| fludarabine + SNS-314 | 271 | 301 | 39.6 | 98.4 | 136 | 242 | 97.1 | 3930 | - | 96.3 |
| GW0742 + STA-4783 | 126 | 1620 | 63.0 | 289 | 992 | 237 | 46.0 | 525 | 69.2 | 165 |
| fludarabine + lapatinib | 72.2 | 66.6 | 70.9 | 82.9 | 108 | 31.4 | 76.8 | 4780 | 375 | 174 |
| SNS-314 + OSU-03012 | 266 | 102 | 259 | 148 | 136 | 328 | 269 | 439 | - | 123 |
| STA-4783 + SNS-032 | 343 | 5210 | 341 | 410 | 1190 | 298 | 306 | 1610 | - | 121 |
| OSU-03012 + lapatinib | 280 | 3180 | 3760 | 226 | 1030 | 1380 | 69.6 | 317 | - | 209 |
| lapatinib + JZL184 | 75.1 | 93.9 | 91.6 | 56.4 | 136 | 126 | 230 | 319 | 90.5 | 484 |
| OSU-03012 + fludarabine | 128 | 187 | 68.5 | 49.7 | 158 | 90.2 | 126 | 10500 | - | 219 |
| SNS-032 + lapatinib | 235 | 190 | 232 | 133 | 135 | 111 | 157 | 88.5 | - | 248 |
| fludarabine + JZL184 | 200 | 82.3 | 130 | 153 | 309 | 113 | 153 | 2500 | 417 | 93.6 |
| SNS-314 + JZL184 | 176 | 127 | 160 | 102 | 168 | 120 | 142 | 181 | 34.7 | 122 |
| SNS-314 + STA-4783 | - | 3690 | 280 | - | 1560 | 701 | 495 | 175 | - | 160 |
| GW0742 + SNS-314 | 478 | 102 | 137 | 91.5 | 115 | 87.6 | 167 | 175 | 65.5 | 37.9 |
| SNS-314 + SNS-032 | 471 | 280 | 101 | 84.9 | 104 | 117 | 338 | 59.3 | - | 137 |
| SNS-032 + JZL184 | 158 | 125 | 297 | 83.1 | 169 | 213 | 338 | 34.4 | 111 | 401 |
| STA-4783 + JZL184 | 129 | 3450 | 68.2 | 4800 | 3500 | 261 | 114 | 523 | 155 | 313 |
| STA-4783 + lapatinib | 134 | 3170 | 134 | 1220 | 3170 | 2190 | 80.5 | 1540 | - | 105 |
| OSU-03012 + JZL184 | 28.0 | 81.5 | 78.2 | 44.4 | 217 | 61.2 | 87.7 | 599 | 306 | 115 |
| SNS-032 + GW0742 | 145 | 192 | 96.7 | 106 | 149 | 68.5 | 128 | 111 | 79.4 | 59.6 |
| OSU-03012 + GW0742 | 186 | 196 | 90.5 | 800 | 2870 | 159 | 120 | 588 | 81.1 | 193 |
| GW0742 + fludarabine | 110 | 78.3 | 172 | 120 | 82.3 | 258 | 281 | 810 | 346 | 83.0 |
| SNS-032 + fludarabine | 251 | 61.9 | 138 | 59.9 | 92.7 | 134 | 80.0 | 8710 | - | 187 |
| JZL184 + GW0742 | 102 | 101 | 55.8 | 55.1 | 170 | 71.8 | 48.9 | 131 | 96.6 | 92.3 |